These results are taken from PMC12061305.

Protein sequences, listed by entry. Tags and fused reporters are not part of them.
UniProt Q8VEK3: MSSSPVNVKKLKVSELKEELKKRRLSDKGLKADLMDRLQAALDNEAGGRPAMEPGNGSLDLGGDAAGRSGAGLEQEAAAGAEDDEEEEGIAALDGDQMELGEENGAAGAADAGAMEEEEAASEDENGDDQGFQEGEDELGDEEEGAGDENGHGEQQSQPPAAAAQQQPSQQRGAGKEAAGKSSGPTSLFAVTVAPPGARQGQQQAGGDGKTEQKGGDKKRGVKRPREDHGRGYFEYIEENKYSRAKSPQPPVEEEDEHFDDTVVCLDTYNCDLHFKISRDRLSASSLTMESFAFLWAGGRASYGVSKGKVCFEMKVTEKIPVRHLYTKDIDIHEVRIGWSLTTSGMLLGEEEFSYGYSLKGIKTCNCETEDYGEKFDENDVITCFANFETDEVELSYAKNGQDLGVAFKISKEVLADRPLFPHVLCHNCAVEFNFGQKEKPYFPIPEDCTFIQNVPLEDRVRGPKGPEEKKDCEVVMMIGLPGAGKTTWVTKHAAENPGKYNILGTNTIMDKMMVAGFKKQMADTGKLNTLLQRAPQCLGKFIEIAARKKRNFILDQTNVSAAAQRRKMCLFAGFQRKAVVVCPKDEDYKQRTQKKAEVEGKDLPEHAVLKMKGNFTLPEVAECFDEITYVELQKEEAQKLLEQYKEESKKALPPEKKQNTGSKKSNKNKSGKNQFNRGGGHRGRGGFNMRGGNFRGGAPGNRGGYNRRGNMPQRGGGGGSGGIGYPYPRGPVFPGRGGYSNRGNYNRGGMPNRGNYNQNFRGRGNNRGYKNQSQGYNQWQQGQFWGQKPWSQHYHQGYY
UniProt Q9Z204: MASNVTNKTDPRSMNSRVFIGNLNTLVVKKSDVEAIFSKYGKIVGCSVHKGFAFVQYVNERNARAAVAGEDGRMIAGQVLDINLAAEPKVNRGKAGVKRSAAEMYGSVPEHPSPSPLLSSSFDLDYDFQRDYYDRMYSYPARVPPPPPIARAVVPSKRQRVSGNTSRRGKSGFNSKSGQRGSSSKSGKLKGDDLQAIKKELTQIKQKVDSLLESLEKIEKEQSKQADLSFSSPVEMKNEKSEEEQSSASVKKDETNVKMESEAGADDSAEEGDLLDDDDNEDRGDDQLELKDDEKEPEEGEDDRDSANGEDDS
UniProt Q9WV02: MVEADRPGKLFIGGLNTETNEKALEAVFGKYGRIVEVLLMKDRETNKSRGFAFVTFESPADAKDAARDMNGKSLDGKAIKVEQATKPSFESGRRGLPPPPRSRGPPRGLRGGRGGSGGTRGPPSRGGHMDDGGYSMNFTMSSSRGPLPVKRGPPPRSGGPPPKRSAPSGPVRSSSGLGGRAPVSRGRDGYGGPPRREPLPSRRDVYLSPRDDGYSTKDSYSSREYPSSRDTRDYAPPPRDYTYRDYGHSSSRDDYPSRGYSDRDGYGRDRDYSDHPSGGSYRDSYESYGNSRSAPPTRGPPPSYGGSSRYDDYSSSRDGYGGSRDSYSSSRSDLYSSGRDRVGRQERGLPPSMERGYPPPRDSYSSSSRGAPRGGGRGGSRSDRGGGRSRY

In assay [1] the target is Hnrnpu (precipitated with anti-Hnrnpu antibody) (UniProt Q8VEK3). Put plainly: co-IP; HEK293T cells transfected with plasmids expressing HA-labeled spliceosome complex components, with or without HA-Niban2 overexpression; co-IP with anti-Hnrnpu antibody or preimmune IgG; immunoblot. In general terms: A western blot detects proteins with antibodies after separation by electrophoresis.

Assay [2] deals with Flag-Hnrnpu (UniProt Q8VEK3). Description: co-IP; anti-Flag antibody for Flag-Hnrnpu or anti-HA antibody for HA-Niban2 (antibody-conjugated magnetic beads), immunoblot for Niban2 and Hnrnpu.

No constants are given. Whether binding was seen depends on the method and setting. In cells and extracts the contact can be indirect. Some binding calls cover weakened binding; strength is not graded here. For part of these data: Sequences can lack the tags named with a protein.

As for Hnrnpc (from UniProt Q9Z204 1-313), the binding entry in assay [1] is given as “binds weakly”.
On to HA-Rbmx (from UniProt Q9WV02 1-391), for which, in assay [1], the binding result is listed as “binds”.

B1: HA-Niban2 (protein, UniProt Q8R1F1 1-749)
chain: MGDVLSTHLDDARRQHIAEKTEKILTEFLRFYEDQYGVSLFNSMRHEIEGTGPPQAQLLWRKVPLDERIIFSGNLFQYQEDNKKWRNRFSLVPHNYGLVLYENKVAYERQIPPRAVINSAGYKVLTSVDQYLELVGNSLPGTTSKSGSTPILKCPTQFPLILWHPYARHYYFCMMTEAEQDKWQAVLQDCVRHCNNGIPENSKVEGPAFTDAIRMYRQSKEQYGTWEMLCGNEVQILSNLVMEELGPALKAELGPRLKGKPQERQRQWIQISDAVYRLVFEQAKVHFEDVLCKLQRARPAMEAVIRTDMDQIITSKEHLASKIRAFILPKAEVCVRNHVQPYIPSILEALMVPTSQGFTEVRDVFFKEVTDMNLNVINEGGIDKLGEYMEKLSQLAYHPLKMQSCYEKMEPLRLDGLQQRFDVSSTSVFKQRAQIHMREQMDNAVYTFETLLHQELGKGPTKEELCKSIQRILERVLKKYDYDSSSVRKRFFREALLQITIPFLLKKLAPTCKSELPRFQELIFEDFARFILVENTYEEVVLQTVMKDILQAVKEAAVQRKHNLYRDSMVLHNSDPNLHLLAEGTPIDWGEQYGDSGDSGGGDSGGSPCPSEAATLTEKRRRAKQVMSVVQDEESGLPFEAGVEPPSPASPDSVTELRGLLAQDLQAESSPPASPLLNGAPVQESSQPVAVPEASPPASPLRHLPPGKAVDLEPPKPSDQETGEQVSSPGSRPPIHTTTEDSAGVQTEF
Regarding B1, the binding entry in assay [2] is on record as “binds”.
